Reference: publication PMC8184998
These are yes or no findings as the source states them, for the method shown. In cells and extracts the contact can be indirect. Some results given as binding are weak or reduced against the parent protein; the word gives no strength.

By UniProt entry, the sequences of proteins in these tests, tags left out.
UniProt P78395: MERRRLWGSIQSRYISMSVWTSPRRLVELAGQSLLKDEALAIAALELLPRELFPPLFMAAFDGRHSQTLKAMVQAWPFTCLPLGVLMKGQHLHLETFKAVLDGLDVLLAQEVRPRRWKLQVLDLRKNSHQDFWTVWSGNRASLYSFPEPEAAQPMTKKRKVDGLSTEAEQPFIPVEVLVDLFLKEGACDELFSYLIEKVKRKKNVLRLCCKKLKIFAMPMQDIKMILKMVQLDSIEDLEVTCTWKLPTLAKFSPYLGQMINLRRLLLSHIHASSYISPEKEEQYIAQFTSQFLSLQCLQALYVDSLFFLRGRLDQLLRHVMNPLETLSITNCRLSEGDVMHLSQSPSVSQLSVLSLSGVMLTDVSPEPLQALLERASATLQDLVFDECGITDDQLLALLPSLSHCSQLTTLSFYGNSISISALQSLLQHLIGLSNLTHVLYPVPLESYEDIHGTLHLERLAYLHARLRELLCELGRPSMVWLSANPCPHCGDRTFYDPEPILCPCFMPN
UniProt Q8N726: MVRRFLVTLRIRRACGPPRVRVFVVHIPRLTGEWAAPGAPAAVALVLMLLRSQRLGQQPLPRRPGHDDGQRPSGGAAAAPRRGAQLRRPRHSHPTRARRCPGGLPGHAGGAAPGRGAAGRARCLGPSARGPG
UniProt Q15370: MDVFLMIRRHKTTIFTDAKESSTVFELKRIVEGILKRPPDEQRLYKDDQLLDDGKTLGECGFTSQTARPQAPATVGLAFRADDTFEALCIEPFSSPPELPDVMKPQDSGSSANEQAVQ

Assays:
HA-Prame (human) = HA-Prame (human) (UniProt P78395); experiment: co-IP; Flag-tagged p14/ARF and HA-tagged Prame transfected into HEK293T cells for 24 h; total cell lysates immunoprecipitated with anti-HA beads (blot Flag) or anti-Flag M2 beads (blot HA)
Flag-p14/ARF (human) = Flag-p14/ARF (human) (UniProt Q8N726); experiment: as above
[1] = biological target: p14/ARF (human (endogenous in HepG2 and H1299)) (UniProt Q8N726); experiment: co-IP; endogenous proteins; cells (H1299, HepG2) pretreated with MG-132 for 2 h; extracts incubated with primary antibody (p14/ARF or RBX1) or control IgG overnight at 4 °C, protein A/G magnetic beads 2 h; immunoblotting

binding [1]	Substance	also measured
	Flag-p14/ARF (from UniProt Q8N726 1-132)	binding (HA-Prame (human)): binds
	HA-Prame (from UniProt P78395 1-509)	binding (Flag-p14/ARF (human)): binds
binds	Preferentially Expressed Antigen in Melanoma (Prame) (from UniProt P78395 1-509)	
binds	Transcription Elongation Factor B Subunit 2 (EloB) (from UniProt Q15370 1-118)	
